# Laboratory results from patent publication US20250154226A1, “LONG-ACTING GLP-1/GLP-2 DUAL AGONIST COMPOUND” (CHENGDU AODA BIOTECHNOLOGY CO., LTD, priority 2022, published 2025).
# The chains behind the UniProt entries cited, without tags or fusion partners. Residues count along the entry.
# UniProt P43220, 24-463, species assumed: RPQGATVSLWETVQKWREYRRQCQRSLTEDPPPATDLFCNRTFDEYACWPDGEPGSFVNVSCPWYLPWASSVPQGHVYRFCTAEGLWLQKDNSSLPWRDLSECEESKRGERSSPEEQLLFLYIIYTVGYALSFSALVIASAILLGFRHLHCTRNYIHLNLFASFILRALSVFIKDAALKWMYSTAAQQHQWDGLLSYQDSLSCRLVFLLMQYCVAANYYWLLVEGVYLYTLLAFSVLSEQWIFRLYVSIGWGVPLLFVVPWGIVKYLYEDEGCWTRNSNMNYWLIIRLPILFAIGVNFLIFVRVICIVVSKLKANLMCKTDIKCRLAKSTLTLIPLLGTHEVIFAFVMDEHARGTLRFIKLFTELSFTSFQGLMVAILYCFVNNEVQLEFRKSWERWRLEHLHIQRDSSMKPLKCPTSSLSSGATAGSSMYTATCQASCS
# At least one peptide structure holds a part that was inferred or is arguable (an end, a ring closure or a residue). Starred links: 1 amine or outer side, 2 acyl side, 3 side chain; linkers in the order of their positions; H or OH if unused. Non-standard residues stand in square brackets, D forms with d. Residues, ends and D or L forms follow the SMILES beside them. Groups on a side chain read outwards from the residue. *: point of attachment. X2 = O=C(O)CCCCCCCCCCCCCCCCC(=O)N[C@@H](CCC(=O)NCCOCCOCCOCCOCCOCC(=O)*)C(=O)O; X1 = O=C(O)CCCCCCCCCCCCCCCCC(=O)N[C@@H](CCC(=O)NCCOCCOCCOCCOCC(=O)*)C(=O)O; C18 diacid = O=C(O)CCCCCCCCCCCCCCCCC(=O)*; γGlu = O=C(O)[C@H](CCC(=O)[*:2])N[*:1]; AEEEA = NCCOCCOCCOCC(=O)O; Aib = CC(C)(N)C(=O)O
# Assays:
# GLP-1R = target: T1, GLP-1R (Homo sapiens, UniProt P43220); assay: Determination of GLP-1 activity: cAMP chemiluminescence (RLU) in CHO-K1 cell line stably expressing GLP-1R; format: cell-based; conditions: read-out: GLP-1 activity [EC50 (pmol)]
# T1 construct: expressed in transfected cells; host or cells: CHO-K1
# Procedure: (§1) GLP-1R, under the stimulation of its specific agonist, can activate the intracellular adenylate cyclase pathway, and increase the level of cAMP, finally leading to the generation and release of insulin. The stimulation of the cell lines stably transfected with GLP-1R by the agonist to be tested can lead to rapid increase in the intracellular cAMP level, and the relative light units (RLUs) after stimulating the cells at each dose are determined by chemiluminescence method to calculate the EC50 of the agonist. This method for determining activity is commonly used for GLP-1 receptor agonist activity analysis at home and abroad.
# CHO-K1 cell line stably expressing GLP-1R was stimulated with the agonist at different concentrations. The EC50 value of the agonist was calculated by determining the relative light units after stimulating the cells at each dose.
# GLP-2R = target: T2, GLP-2R (Homo sapiens, UniProt O95838); assay: Determination of GLP-2 activity: cAMP chemiluminescence (RLU) in CHO-K1 cell line stably expressing GLP-2R; format: cell-based; conditions: read-out: GLP-2 activity [EC50 (nmol)]
# T2 construct: expressed in transfected cells; host or cells: CHO-K1
# T2 sequence (O95838 1-553): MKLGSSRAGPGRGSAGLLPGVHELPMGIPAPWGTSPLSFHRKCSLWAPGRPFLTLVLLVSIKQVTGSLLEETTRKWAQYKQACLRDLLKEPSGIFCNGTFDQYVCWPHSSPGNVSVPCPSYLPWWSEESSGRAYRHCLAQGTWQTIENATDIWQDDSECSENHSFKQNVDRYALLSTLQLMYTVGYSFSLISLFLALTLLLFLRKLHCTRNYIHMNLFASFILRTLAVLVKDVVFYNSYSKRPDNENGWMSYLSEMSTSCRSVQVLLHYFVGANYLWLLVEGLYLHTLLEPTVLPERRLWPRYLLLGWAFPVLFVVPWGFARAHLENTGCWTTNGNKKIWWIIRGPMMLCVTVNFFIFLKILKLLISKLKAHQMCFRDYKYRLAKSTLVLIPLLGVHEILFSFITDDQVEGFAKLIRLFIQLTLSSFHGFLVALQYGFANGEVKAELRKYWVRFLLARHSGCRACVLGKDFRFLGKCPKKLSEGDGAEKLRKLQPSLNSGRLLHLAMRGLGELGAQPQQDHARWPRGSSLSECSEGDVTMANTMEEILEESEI
# Procedure: as §1, with “GLP-2R, under” for “GLP-1R, under”, “for GLP-2” for “for GLP-1”
# CHO-K1 cell line stably expressing GLP-2R was stimulated with the agonist at different concentrations. The EC50 value of the agonist was calculated by determining the relative light units after stimulating the cells at each dose.
Structure (SMILES),EC50 (GLP-1R),EC50 (GLP-2R)
"CC[C@H](C)[C@H](NC(=O)[C@H](Cc1ccccc1)NC(=O)[C@H](CC(=O)O)NC(=O)[C@H](CCCNC(=N)N)NC(=O)[C@H](C)NC(=O)[C@H](C)NC(=O)[C@H](CCC(N)=O)NC(=O)[C@H](CCCCNC(=O)COCCOCCOCCNC(=O)CC[C@H](NC(=O)CCCCCCCCCCCCCCCCC(=O)O)C(=O)O)NC(=O)[C@H](CC(=O)O)NC(=O)[C@H](CC(C)C)NC(=O)[C@@H](NC(=O)[C@@H](NC(=O)[C@H](C)NC(=O)[C@H](CC(C)C)NC(=O)[C@H](CCC(=O)O)NC(=O)[C@H](CO)NC(=O)[C@@H](NC(=O)[C@H](Cc1ccccc1)NC(=O)[C@H](CO)NC(=O)CNC(=O)[C@H](CCC(=O)O)NC(=O)C(C)(C)NC(=O)[C@@H](N)Cc1c[nH]cn1)[C@@H](C)O)[C@@H](C)O)[C@@H](C)CC)C(=O)N[C@@H](C)C(=O)N[C@@H](Cc1c[nH]c2ccccc12)C(=O)N[C@@H](CC(C)C)C(=O)N[C@H](C(=O)N[C@@H](CCC(N)=O)C(=O)N[C@@H](Cc1c[nH]cn1)C(=O)N[C@@H](CCCCN)C(=O)N[C@H](C(=O)N[C@H](C(=O)N[C@@H](CC(=O)O)C(N)=O)[C@@H](C)O)[C@@H](C)CC)[C@@H](C)CC [Compound 4, His-Aib-Glu-Gly-Ser-Phe-Thr-Ser-Glu-Leu-Ala-Thr-Ile-Leu-Asp-Lys(PEG3CH2CO-γGlu-octadecanedioic acid)-Gln-Ala-Ala-Arg-Asp-Phe-Ile-Ala-Trp-Leu-Ile-Gln-His-Lys-Ile-Thr-Asp-NH2] (H-H[Aib]EGSFTSELATILDK([AEEEA-γGlu-C18 diacid])QAARDFIAWLIQHKITD-NH2; N-terminus assumed)",0.06 nM,4.33 nM
"CC[C@H](C)[C@H](NC(=O)[C@H](Cc1ccccc1)NC(=O)[C@H](CC(=O)O)NC(=O)[C@H](CCCNC(=N)N)NC(=O)[C@H](C)NC(=O)[C@H](C)NC(=O)[C@H](CCC(N)=O)NC(=O)[C@H](CCCCNC(=O)COCCOCCOCCOCCOCCNC(=O)CC[C@H](NC(=O)CCCCCCCCCCCCCCCCC(=O)O)C(=O)O)NC(=O)[C@H](CC(=O)O)NC(=O)[C@H](CC(C)C)NC(=O)[C@@H](NC(=O)[C@@H](NC(=O)[C@H](C)NC(=O)[C@H](CC(C)C)NC(=O)[C@H](CCC(=O)O)NC(=O)[C@H](CO)NC(=O)[C@@H](NC(=O)[C@H](Cc1ccccc1)NC(=O)[C@H](CO)NC(=O)CNC(=O)[C@H](CCC(=O)O)NC(=O)C(C)(C)NC(=O)[C@@H](N)Cc1c[nH]cn1)[C@@H](C)O)[C@@H](C)O)[C@@H](C)CC)C(=O)N[C@@H](C)C(=O)N[C@@H](Cc1c[nH]c2ccccc12)C(=O)N[C@@H](CC(C)C)C(=O)N[C@H](C(=O)N[C@@H](CCC(N)=O)C(=O)N[C@@H](Cc1c[nH]cn1)C(=O)N[C@@H](CCCCN)C(=O)N[C@H](C(=O)N[C@H](C(=O)N[C@@H](CC(=O)O)C(N)=O)[C@@H](C)O)[C@@H](C)CC)[C@@H](C)CC [Compound 6, His-Aib-Glu-Gly-Ser-Phe-Thr-Ser-Glu-Leu-Ala-Thr-Ile-Leu-Asp-Lys(PEG5CH2CO-γGlu-octadecanedioic acid)-Gln-Ala-Ala-Arg-Asp-Phe-Ile-Ala-Trp-Leu-Ile-Gln-His-Lys-Ile-Thr-Asp-NH2] (H-H[Aib]EGSFTSELATILDK(X2)QAARDFIAWLIQHKITD-NH2; N-terminus assumed)",0.0795 nM,4.62 nM
"CC[C@H](C)[C@H](NC(=O)[C@H](Cc1ccccc1)NC(=O)[C@H](CC(=O)O)NC(=O)[C@H](CCCNC(=N)N)NC(=O)[C@H](C)NC(=O)[C@H](C)NC(=O)[C@H](CCC(N)=O)NC(=O)[C@H](CCCCNC(=O)COCCOCCOCCOCCNC(=O)CC[C@H](NC(=O)CCCCCCCCCCCCCCCCC(=O)O)C(=O)O)NC(=O)[C@H](CC(=O)O)NC(=O)[C@H](CC(C)C)NC(=O)[C@@H](NC(=O)[C@@H](NC(=O)[C@H](C)NC(=O)[C@H](CC(C)C)NC(=O)[C@H](CCC(=O)O)NC(=O)[C@H](CO)NC(=O)[C@@H](NC(=O)[C@H](Cc1ccccc1)NC(=O)[C@H](CO)NC(=O)CNC(=O)[C@H](CCC(=O)O)NC(=O)C(C)(C)NC(=O)[C@@H](N)Cc1c[nH]cn1)[C@@H](C)O)[C@@H](C)O)[C@@H](C)CC)C(=O)N[C@@H](C)C(=O)N[C@@H](Cc1c[nH]c2ccccc12)C(=O)N[C@@H](CC(C)C)C(=O)N[C@H](C(=O)N[C@@H](CCC(N)=O)C(=O)N[C@@H](Cc1c[nH]cn1)C(=O)N[C@@H](CCCCN)C(=O)N[C@H](C(=O)N[C@H](C(=O)N[C@@H](CC(=O)O)C(N)=O)[C@@H](C)O)[C@@H](C)CC)[C@@H](C)CC [Compound 5, His-Aib-Glu-Gly-Ser-Phe-Thr-Ser-Glu-Leu-Ala-Thr-Ile-Leu-Asp-Lys(PEG4CH2CO-γGlu-octadecanedioic acid)-Gln-Ala-Ala-Arg-Asp-Phe-Ile-Ala-Trp-Leu-Ile-Gln-His-Lys-Ile-Thr-Asp-NH2] (H-H[Aib]EGSFTSELATILDK(X1)QAARDFIAWLIQHKITD-NH2; N-terminus assumed)",0.0728 nM,5.54 nM
